Results reported in publication PMC5039417 (Biomolecules, 2016).

Test: peptide made by a vendor
Conditions: whole synthesis, mass spectrometry

## LLLLTVLTV
  purity (crude or final not stated): 42%

End groups of sequences in plain letters are not given here.
